Results: paper doi:10.1101/2021.08.25.457671
Where a chain is given by its changes, count along the chain named. These are yes or no findings as the source states them, for the method shown. In cells and extracts the contact can be indirect. Some binding calls cover weakened binding; strength is not graded here.

The chains behind the UniProt entries cited, without tags or fusion partners.
UniProt P10591: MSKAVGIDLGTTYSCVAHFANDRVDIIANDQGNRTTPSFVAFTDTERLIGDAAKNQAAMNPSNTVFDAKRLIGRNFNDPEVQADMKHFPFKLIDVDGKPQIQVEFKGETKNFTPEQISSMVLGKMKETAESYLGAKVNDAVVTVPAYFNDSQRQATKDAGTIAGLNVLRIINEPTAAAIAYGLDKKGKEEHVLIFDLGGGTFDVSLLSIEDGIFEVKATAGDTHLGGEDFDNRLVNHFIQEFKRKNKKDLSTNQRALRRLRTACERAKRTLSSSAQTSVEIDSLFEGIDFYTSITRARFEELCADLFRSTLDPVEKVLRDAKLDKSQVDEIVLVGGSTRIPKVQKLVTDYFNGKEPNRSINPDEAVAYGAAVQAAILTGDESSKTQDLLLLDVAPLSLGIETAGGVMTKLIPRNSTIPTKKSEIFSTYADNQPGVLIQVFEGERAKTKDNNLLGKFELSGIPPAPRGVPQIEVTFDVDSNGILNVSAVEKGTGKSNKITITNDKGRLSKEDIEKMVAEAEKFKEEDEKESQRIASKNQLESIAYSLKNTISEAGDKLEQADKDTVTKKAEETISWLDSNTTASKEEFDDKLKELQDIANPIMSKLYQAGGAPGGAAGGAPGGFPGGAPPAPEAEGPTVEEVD

Experiments:
[1] = biological target: T1, Pim1 S974A (budding yeast) (UniProt P36775); assay: co-IP
T1 sequence: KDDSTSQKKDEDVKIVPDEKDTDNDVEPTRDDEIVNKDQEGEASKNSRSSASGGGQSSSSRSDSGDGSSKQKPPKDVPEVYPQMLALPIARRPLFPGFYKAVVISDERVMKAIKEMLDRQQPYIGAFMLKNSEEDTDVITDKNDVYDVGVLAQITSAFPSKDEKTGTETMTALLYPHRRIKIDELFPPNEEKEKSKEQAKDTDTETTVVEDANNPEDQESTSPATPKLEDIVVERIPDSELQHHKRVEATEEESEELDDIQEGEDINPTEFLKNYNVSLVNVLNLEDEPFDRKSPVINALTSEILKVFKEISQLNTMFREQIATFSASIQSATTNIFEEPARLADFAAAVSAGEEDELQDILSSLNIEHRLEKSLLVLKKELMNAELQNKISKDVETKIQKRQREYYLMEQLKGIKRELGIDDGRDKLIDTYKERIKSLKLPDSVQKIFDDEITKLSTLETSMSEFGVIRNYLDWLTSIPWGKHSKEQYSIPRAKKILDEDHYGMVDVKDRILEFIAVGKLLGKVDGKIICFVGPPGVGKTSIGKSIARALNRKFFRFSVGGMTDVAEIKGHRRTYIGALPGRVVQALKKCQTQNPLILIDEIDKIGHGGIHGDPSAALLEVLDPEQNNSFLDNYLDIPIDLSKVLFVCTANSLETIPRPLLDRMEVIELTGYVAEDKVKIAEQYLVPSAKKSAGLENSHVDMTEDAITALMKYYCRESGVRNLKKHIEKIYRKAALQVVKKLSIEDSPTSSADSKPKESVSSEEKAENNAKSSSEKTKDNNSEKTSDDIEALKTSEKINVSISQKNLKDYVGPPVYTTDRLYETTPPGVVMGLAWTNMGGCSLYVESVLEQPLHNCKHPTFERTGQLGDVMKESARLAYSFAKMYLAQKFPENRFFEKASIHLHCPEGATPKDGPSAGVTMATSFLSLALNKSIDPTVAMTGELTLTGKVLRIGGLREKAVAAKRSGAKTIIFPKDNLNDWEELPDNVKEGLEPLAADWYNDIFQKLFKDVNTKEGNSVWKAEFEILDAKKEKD

[2] = biological target: T2, Pim1 wildtype (bait of the co-IP in yeast) (budding yeast) (UniProt P36775); assay: co-IP
T2 sequence: T1 sequence with A876S

binding [1]: binds
binding [2]: binds
Substance: Ssa1 found by immunoblot in co-immunoprecipitates of client proteins from yeast (from UniProt P10591 1-642)
